This experiment has as its target eGFP-PD-1 (non-relevant eGFP fusion protein) (UniProt Q15116). Briefly: MST; normal model, optimised conditions: MPer lysate with the eGFP fusion kept constant around 33 nM, Fc protein titrated 1:1 in PBS with 0.05% P20 from 1 µM to 0.05 nM; 80% MST power, MST-on 30 s; blue LED; only the binder purified.

Protein sequences, listed by entry. Tags and fused reporters are not part of them. Residues count along the entry.
UniProt Q15116, residues 25-288: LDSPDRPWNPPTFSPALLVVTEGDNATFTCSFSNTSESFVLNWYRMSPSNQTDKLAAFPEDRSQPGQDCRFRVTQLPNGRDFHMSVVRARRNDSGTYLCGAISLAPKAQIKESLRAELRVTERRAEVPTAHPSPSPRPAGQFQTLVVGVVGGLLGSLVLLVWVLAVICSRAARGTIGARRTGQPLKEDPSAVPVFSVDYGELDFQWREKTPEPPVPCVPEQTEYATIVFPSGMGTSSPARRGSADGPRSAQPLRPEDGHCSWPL

No constants are given. Whether binding was seen depends on the method and setting.

Take “recombinant human ErbB2-Fc chimera (from UniProt P04626 23-652) (Fc fusion)”: the binding entry was “no binding (tested: Kd > 20 µM)”.

The values are drawn from PMC6853952, “MUC4-ErbB2 Oncogenic Complex: Binding studies using Microscale Thermophoresis” (Scientific Reports, 2019).
